Laboratory results as given in PMC12186327.
No constants are given. Whether binding was seen depends on the method and setting. Binding seen in cells or lysates may run through a third protein. A result given as binding can be weak or reduced; the word gives no strength.

Target: GST-fused VPS26
Experiment: pull-down; GST fusion proteins on glutathione-conjugated agarose beads incubated with in vitro translated, biotinylated-lysine-labeled SORLA-C; bound probe detected colorimetrically after SDS-PAGE; only the target purified

- binding: binds
B1: SORLA-C (signal peptide a.a. 1-34 joined to the C terminal sequence a.a. 2111-2214 of SORLA) (domain or fragment, UniProt Q92673 1-34; Q92673 2111-2214)
chain: MATRSSRRESRLPFLFTLVALLPPGALCEVWTQRPAILLYDELGSGADASATQAARSTDVAAVVVPILFLILLSLGVGFAILYTKHRRLQSSFTAFANSHYSSRLGSAIFSSGDDLGEDDEDAPMITGFSDDVPMVIA
modifications: biotinylated lysine (Transcend tRNA) incorporated during in vitro translation
